Test results reported in PMC7594058.
Results are given in words; binding and its absence hold for the method and conditions named. Binding seen in cells or lysates may run through a third protein. A yes stands for co-enrichment or nearness to the bait. Other partners may have been found. For some of these results: No binding means not detected with the bait.

Protein sequences, listed by entry. Tags and fused reporters are not part of them. Lines headed by an entry give the natural chain unless they say otherwise; changes in a name come on top.
UniProt P03083: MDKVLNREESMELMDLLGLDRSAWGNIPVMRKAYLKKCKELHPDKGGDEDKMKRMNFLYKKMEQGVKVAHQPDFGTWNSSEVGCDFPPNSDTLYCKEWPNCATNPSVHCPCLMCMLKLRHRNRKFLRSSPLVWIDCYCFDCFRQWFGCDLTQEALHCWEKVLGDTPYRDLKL
UniProt P03072: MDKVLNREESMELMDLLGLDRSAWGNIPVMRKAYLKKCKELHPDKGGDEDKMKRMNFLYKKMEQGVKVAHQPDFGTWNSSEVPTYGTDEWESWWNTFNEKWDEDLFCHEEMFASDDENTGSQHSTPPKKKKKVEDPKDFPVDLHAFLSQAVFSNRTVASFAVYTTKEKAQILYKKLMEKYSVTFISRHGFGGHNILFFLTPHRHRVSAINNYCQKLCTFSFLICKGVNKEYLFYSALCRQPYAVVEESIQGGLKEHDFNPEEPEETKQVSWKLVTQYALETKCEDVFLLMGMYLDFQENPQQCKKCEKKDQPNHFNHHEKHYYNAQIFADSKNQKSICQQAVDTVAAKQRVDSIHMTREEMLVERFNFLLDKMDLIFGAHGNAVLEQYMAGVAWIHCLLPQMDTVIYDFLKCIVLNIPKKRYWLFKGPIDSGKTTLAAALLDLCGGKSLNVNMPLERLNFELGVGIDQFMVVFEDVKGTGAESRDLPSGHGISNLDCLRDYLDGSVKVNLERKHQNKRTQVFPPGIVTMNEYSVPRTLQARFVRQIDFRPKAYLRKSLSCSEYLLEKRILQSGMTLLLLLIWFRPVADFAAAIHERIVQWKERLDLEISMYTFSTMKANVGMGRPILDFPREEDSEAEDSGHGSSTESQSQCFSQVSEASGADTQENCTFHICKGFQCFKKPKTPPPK
UniProt Q9NVX2: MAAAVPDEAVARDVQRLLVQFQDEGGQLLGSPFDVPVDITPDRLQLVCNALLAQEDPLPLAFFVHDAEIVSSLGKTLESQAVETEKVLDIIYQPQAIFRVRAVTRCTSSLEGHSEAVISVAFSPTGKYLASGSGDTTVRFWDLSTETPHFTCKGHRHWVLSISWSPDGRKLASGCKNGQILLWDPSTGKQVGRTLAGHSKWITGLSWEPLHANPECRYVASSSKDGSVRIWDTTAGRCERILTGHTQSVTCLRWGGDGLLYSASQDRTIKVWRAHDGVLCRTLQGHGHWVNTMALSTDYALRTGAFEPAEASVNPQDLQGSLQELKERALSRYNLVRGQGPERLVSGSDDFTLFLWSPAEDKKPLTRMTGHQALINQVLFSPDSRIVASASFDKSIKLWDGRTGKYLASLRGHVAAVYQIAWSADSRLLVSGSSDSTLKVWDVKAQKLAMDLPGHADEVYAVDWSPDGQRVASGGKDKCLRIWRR
UniProt Q13439: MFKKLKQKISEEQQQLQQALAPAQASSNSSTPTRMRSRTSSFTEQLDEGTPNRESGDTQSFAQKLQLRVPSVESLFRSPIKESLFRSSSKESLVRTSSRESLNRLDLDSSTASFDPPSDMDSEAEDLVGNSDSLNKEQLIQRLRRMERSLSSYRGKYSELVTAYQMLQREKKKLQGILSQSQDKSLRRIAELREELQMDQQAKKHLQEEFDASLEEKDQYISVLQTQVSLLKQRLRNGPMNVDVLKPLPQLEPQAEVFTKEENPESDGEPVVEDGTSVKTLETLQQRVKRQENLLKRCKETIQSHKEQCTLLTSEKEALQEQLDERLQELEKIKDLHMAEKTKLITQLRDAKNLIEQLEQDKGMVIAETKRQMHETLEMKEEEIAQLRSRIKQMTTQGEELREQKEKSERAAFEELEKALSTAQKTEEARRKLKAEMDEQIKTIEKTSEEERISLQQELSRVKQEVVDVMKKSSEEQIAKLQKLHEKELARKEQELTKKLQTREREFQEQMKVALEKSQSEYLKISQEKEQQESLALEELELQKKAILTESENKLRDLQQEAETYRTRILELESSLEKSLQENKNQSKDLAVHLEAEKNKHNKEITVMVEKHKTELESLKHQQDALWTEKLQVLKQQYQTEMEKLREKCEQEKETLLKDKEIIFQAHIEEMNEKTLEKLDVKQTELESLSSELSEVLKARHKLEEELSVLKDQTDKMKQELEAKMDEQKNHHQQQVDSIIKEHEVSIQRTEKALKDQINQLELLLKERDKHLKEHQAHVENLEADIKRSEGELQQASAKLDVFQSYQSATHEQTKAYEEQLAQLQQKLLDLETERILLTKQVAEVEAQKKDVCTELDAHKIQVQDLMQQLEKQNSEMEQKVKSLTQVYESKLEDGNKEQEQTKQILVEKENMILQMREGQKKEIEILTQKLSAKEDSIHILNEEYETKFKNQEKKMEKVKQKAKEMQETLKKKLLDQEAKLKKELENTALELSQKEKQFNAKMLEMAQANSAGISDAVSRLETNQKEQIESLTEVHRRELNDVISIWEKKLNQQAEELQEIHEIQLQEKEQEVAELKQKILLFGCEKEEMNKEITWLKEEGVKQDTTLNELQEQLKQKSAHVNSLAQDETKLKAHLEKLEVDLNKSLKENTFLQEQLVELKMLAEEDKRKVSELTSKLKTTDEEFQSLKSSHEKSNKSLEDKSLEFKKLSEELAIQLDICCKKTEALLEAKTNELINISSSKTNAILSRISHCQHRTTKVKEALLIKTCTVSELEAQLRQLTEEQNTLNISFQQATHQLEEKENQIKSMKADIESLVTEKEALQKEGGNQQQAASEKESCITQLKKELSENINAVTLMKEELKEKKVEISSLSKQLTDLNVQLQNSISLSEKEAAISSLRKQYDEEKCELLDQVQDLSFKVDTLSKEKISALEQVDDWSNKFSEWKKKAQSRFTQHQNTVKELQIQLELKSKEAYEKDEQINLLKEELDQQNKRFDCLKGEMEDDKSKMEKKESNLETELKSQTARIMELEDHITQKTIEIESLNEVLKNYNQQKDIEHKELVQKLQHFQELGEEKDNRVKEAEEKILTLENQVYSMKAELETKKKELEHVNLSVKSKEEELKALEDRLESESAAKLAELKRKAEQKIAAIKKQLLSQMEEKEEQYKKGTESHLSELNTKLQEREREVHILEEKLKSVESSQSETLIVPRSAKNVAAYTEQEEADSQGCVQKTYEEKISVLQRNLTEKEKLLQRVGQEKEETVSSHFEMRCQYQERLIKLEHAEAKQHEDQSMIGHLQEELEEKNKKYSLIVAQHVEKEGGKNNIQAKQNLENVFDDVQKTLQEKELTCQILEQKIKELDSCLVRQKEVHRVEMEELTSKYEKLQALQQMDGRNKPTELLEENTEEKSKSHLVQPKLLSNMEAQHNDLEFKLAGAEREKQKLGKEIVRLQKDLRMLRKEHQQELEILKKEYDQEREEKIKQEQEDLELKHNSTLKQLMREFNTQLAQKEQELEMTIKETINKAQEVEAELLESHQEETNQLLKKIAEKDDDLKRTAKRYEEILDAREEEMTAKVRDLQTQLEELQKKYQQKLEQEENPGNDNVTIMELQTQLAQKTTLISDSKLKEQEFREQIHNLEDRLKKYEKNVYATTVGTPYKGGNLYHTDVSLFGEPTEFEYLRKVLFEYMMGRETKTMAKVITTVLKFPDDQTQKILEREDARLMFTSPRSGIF
UniProt P28370: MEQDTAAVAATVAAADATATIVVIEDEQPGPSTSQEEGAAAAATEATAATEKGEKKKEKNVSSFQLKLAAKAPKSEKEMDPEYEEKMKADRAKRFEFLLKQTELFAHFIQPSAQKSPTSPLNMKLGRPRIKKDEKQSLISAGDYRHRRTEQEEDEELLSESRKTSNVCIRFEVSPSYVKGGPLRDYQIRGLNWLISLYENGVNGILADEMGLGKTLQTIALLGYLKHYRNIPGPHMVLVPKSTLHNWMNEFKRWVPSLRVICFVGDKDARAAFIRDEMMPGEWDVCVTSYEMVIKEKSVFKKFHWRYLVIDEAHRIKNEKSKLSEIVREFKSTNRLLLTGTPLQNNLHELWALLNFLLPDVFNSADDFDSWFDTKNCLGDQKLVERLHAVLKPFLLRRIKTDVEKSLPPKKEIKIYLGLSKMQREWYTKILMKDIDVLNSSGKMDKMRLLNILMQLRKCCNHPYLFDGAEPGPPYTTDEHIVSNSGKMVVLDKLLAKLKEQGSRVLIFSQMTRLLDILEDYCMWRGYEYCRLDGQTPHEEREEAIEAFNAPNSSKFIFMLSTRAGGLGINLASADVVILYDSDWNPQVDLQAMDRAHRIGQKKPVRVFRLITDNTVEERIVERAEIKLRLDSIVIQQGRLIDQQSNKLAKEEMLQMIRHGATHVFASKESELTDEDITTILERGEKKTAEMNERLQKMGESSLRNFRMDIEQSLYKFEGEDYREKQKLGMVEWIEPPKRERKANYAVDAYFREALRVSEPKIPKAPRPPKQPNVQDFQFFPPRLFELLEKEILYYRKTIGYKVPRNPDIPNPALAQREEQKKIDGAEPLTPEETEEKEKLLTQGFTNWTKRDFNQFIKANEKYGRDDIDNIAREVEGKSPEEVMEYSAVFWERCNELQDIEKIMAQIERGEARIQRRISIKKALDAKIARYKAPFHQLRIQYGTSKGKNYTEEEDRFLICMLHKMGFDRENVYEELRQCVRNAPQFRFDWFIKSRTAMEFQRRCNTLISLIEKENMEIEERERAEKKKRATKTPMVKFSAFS
UniProt Q96GD4: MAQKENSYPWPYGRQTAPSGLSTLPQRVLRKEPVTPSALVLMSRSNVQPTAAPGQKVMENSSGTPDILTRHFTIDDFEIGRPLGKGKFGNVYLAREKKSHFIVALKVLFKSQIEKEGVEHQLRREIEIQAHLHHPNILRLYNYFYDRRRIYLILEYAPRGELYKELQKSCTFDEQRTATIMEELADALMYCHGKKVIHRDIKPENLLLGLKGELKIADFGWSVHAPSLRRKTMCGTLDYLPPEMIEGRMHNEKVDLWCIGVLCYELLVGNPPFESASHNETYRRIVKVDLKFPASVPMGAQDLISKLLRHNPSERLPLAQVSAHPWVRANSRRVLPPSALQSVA
UniProt Q14137: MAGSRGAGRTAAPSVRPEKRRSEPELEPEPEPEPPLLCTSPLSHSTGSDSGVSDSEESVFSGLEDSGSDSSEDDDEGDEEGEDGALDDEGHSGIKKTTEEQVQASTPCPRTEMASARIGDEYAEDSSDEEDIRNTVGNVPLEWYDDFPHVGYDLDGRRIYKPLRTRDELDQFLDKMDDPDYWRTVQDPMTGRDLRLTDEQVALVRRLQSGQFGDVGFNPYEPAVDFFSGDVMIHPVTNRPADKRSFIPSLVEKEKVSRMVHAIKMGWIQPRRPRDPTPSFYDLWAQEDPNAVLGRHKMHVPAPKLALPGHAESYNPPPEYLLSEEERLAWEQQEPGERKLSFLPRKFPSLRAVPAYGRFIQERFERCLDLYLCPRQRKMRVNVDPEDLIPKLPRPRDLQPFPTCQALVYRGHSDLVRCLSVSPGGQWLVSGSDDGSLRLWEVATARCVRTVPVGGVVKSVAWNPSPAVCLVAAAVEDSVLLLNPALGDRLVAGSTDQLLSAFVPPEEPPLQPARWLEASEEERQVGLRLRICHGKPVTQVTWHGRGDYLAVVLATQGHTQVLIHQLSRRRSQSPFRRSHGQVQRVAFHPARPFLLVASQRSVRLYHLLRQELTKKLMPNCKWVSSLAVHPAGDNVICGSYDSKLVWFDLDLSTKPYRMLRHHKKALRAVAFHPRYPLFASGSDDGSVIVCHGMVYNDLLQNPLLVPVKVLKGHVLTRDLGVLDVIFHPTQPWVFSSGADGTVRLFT
UniProt O14979: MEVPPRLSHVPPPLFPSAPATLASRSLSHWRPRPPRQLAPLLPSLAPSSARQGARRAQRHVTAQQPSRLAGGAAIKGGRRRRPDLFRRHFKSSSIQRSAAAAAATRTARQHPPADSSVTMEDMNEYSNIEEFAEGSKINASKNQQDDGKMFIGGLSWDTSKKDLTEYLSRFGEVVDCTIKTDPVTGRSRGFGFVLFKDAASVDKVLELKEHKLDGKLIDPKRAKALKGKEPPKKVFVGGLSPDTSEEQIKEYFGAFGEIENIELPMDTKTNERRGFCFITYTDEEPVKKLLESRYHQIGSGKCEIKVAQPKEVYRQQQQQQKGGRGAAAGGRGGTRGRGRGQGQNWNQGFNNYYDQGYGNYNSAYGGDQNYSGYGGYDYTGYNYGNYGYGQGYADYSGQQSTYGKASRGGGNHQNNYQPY
UniProt P83916: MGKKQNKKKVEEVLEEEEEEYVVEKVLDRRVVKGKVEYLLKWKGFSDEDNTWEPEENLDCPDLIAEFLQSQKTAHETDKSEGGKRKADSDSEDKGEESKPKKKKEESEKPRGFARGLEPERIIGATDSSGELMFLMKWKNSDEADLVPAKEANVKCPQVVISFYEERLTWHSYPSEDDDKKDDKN

Columns and labels:
[1] = target: T7-2xStrep-JCV Sm t-Ag (JC virus (JCV)) (UniProt P03083); assay: affinity purification with mass spectrometry
[2] = target: T7-2xStrep-JCV LT-Ag (JC virus (JCV)) (UniProt P03072); assay: affinity purification with mass spectrometry

Molecule	binding [1]	binding [2]
cDNA FLJ59521, moderately similar to Zinc finger and SCAN domain-containing protein 2 (from UniProt Q9H5H4 1-540)	binds	–
cDNA FLJ57449, highly similar to Notchless homolog 1 (from UniProt Q9NVX2 1-485)	binds	–
Golgin subfamily A member 4 (from UniProt Q13439 1-2230)	binds	–
Smarca1 (SW1-SNF-related, matrix-associated, actin-dependent regulator of chromatin A 1) (from UniProt P28370 1-1042)	binds	–
Tripartite motif-containing 25, isoform CRA_a (from UniProt Q14258 1-630)	binds	–
FLJ79343, highly similar to SWI/SNF-related matrix-associated actin-dependent regulator of chromatin subfamily A member 5 (from UniProt O60264 1-1052)	binds	–
Interferon regulatory factor 2-binding protein-like (from UniProt Q9H1B7 1-796)	binds	–
Aurora kinase B (from UniProt Q96GD4 1-344)	binds	–
Ribosome biogenesis protein BOP1 (from UniProt Q14137 1-746)	binds	–
Heat shock 70 kDa protein 4L (from UniProt O95757 1-839)	binds	–
cDNA FLJ60148, highly similar to Homo sapiens heterogeneous nuclear ribonucleoprotein D-like (HNRPDL), transcript variant 2 (from UniProt O14979 1-420)	binds	–
Chromobox protein homolog 1 (from UniProt P83916 1-185)	binds	–
Dihydropyrimidine dehydrogenase [NADP (+)] (protein, UniProt Q12882 4-1025) VLSKDSADIESILALNPRTQTHATLCSTSAKKLDKKHWKRNPDKNCFNCEKLENNFDDIKHTTLGERGALREAMRCLKCADAPCQKSCPTNLDIKSFITSIANKNYYGAAKMIFSDNPLGLTCGMVCPTSDLCVGGCNLYATEEGPINIGGLQQFATEVFKAMSIPQIRNPSLPPPEKMSEAYSAKIALFGAGPASISCASFLARLGYSDITIFEKQEYVGGLSTSEIPQFRLPYDVVNFEIELMKDLGVKIICGKSLSVNEMTLSTLKEKGYKAAFIGIGLPEPNKDAIFQGLTQDQGFYTSKDFLPLVAKGSKAGMCACHSPLPSIRGVVIVLGAGDTAFDCATSALRCGARRVFIVFRKGFVNIRAVPEEMELAKEEKCEFLPFLSPRKVIVKGGRIVAMQFVRTEQDETGKWNEDEDQMVHLKADVVISAFGSVLSDPKVKEALSPIKFNRWGLPEVDPETMQTSEAWVFAGGDVVGLANTTVESVNDGKQASWYIHKYVQSQYGASVSAKPELPLFYTPIDLVDISVEMAGLKFINPFGLASATPATSTSMIRRAFEAGWGFALTKTFSLDKDIVTNVSPRIIRGTTSGPMYGPGQSSFLNIELISEKTAAYWCQSVTELKADFPDNIVIASIMCSYNKNDWTELAKKSEDSGADALELNLSCPHGMGERGMGLACGQDPELVRNICRWVRQAVQIPFFAKLTPNVTDIVSIARAAKEGGANGVTATNTVSGLMGLKSDGTPWPAVGIAKRTTYGGVSGTAIRPIALRAVTSIARALPGFPILATGGIDSAESGLQFLHSGASVLQVCSAIQNQDFTVIEDYCTGLKALLYLKSIEELQDWDGQSPATVSHQKGKPVPRIAELMDKKLPSFGPYLEQRKKIIAENKIRLKEQNVAFSPLKRNCFIPKRPIPTIKDVIGKALQYLGTFGELSNVEQVVAMIDEEMCINCGKCYMTCNDSGYQAIQFDPETHLPTITDTCTGCTLCLSVCPIVDCIKMVSRTTPYEPKRGVPLSVNPVC	–	binds
Structural maintenance of chromosomes protein 6 (protein, UniProt Q96SB8 1-1091) MAKRKEENFSSPKNAKRPRQEELEDFDKDGDEDECKGTTLTAAEVGIIESIHLKNFMCHSMLGPFKFGSNVNFVVGNNGSGKSAVLTALIVGLGGRAVATNRGSSLKGFVKDGQNSADISITLRNRGDDAFKASVYGNSILIQQHISIDGSRSYKLKSATGSVVSTRKEELIAILDHFNIQVDNPVSVLTQEMSKQFLQSKNEGDKYKFFMKATQLEQMKEDYSYIMETKERTKEQIHQGEERLTELKRQCVEKEERFQSIAGLSTMKTNLESLKHEMAWAVVNEIEKQLNAIRDNIKIGEDRAARLDRKMEEQQVRLNEAEQKYKDIQDKLEKISEETNARAPECMALKADVVAKKRAYNEAEVLYNRSLNEYKALKKDDEQLCKRIEELKKSTDQSLEPERLERQKKISWLKERVKAFQNQENSVNQEIEQFQQAIEKDKEEHGKIKREELDVKHALSYNQRQLKELKDSKTDRLKRFGPNVPALLEAIDDAYRQGHFTYKPVGPLGACIHLRDPELALAIESCLKGLLQAYCCHNHADERVLQALMKRFYLPGTSRPPIIVSEFRNEIYDVRHRAAYHPDFPTVLTALEIDNAVVANSLIDMRGIETVLLIKNNSVARAVMQSQKPPKNCREAFTADGDQVFAGRYYSSENTRPKFLSRDVDSEISDLENEVENKTAQILNLQQHLSALEKDIKHNEELLKRCQLHYKELKMKIRKNISEIRELENIEEHQSVDIATLEDEAQENKSKMKMVEEHMEQQKENMEHLKSLKIEAENKYDAIKFKINQLSELADPLKDELNLADSEVDNQKRGKRHYEEKQKEHLDTLNKKKRELDMKEKELEEKMSQARQICPERIEVEKSASILDKEINRLRQKIQAEHASHGDREEIMRQYQEARETYLDLDSKVRTLKKFIKLLGEIMEHRFKTYQQFRRCLTLRCKLYFDNLLSQRAYCGKMNFDHKNETLSISVQPGEGNKAAFNDMRALSGGERSFSTVCFILSLWSIAESPFRCLDEFDVYMDMVNRRIAMDLILKMADSQRFRQFILLTPQSMSSLPSSKLIRILRMSDPERGQTTLPFRPVTQEEDDDQR	–	binds
Non-structural maintenance of chromosomes element 1 homolog (protein, UniProt Q8WV22 1-266) MQGSTRRMGVMTDVHRRFLQLLMTHGVLEEWDVKRLQTHCYKVHDRNATVDKLEDFINNINSVLESLYIEIKRGVTEDDGRPIYALVNLATTSISKMATDFAENELDLFRKALELIIDSETGFASSTNILNLVDQLKGKKMRKKEAEQVLQKFVQNKWLIEKEGEFTLHGRAILEMEQYIRETYPDAVKICNICHSLLIQGQSCETCGIRMHLPCVAKYFQSNAEPRCPHCNDYWPHEIPKVFDPEKERESGVLKSNKKSLRSRQH	–	binds
pRb (protein, UniProt P06400 1-928) MPPKTPRKTAATAAAAAAEPPAPPPPPPPEEDPEQDSGPEDLPLVRLEFEETEEPDFTALCQKLKIPDHVRERAWLTWEKVSSVDGVLGGYIQKKKELWGICIFIAAVDLDEMSFTFTELQKNIEISVHKFFNLLKEIDTSTKVDNAMSRLLKKYDVLFALFSKLERTCELIYLTQPSSSISTEINSALVLKVSWITFLLAKGEVLQMEDDLVISFQLMLCVLDYFIKLSPPMLLKEPYKTAVIPINGSPRTPRRGQNRSARIAKQLENDTRIIEVLCKEHECNIDEVKNVYFKNFIPFMNSLGLVTSNGLPEVENLSKRYEEIYLKNKDLDARLFLDHDKTLQTDSIDSFETQRTPRKSNLDEEVNVIPPHTPVRTVMNTIQQLMMILNSASDQPSENLISYFNNCTVNPKESILKRVKDIGYIFKEKFAKAVGQGCVEIGSQRYKLGVRLYYRVMESMLKSEEERLSIQNFSKLLNDNIFHMSLLACALEVVMATYSRSTSQNLDSGTDLSFPWILNVLNLKAFDFYKVIESFIKAEGNLTREMIKHLERCEHRIMESLAWLSDSPLFDLIKQSKDREGPTDHLESACPLNLPLQNNHTAADMYLSPVRSPKKKGSTTRVNSTANAETQATSAFQTQKPLKSTSLSLFYKKVYRLAYLRLNTLCERLLSEHPELEHIIWTLFQHTLQNEYELMRDRHLDQIMMCSMYGICKVKNIDLKFKIIVTAYKDLPHAVQETFKRVLIKEEEYDSIIVFYNSVFMQRLKTNILQYASTRPPTLSPIPHIPRSPYKFPSSPLRIPGGNIYISPLKSPYKISEGLPTPTKMTPRSRILVSIGESFGTSEKFQKINQMVCNSDRVLKRSAEGSNPPKPLKKLRFDIEGSDEADGSKHLPGESKFQQKLAEMTSTRTRMQKQKMNDSMDTSNKEEK	–	no binding
